Test results: publication PMC11213860, “Competitive protein recruitment in artificial cells” (Communications Chemistry, 2024)

Assay: Local concentration of 14-3-3 in coacervates by confocal microscopy with fluorescence calibration curve

Question: With “14-3-3-His: fluorescently labeled His-tagged 14-3-3 hub protein loaded in coacervates (DyLight 405-labeled 14-3-3γ in Supplementary Fig. 1)” as the substance, how does the “median local concentration of 14-3-3 in the coacervates” value (bulk concentration 100 nM, DyLight 405-labeled, corrected for degree of labeling) read?
Answer: 35 ± 11 µM

Question: And the “enhancement of concentration compared to the bulk concentration” value (local versus bulk concentration of 100 nM)?
Answer: 350 fold
